# Assay results from paper PMC9200292.
# Chains of the proteins cited; added tags and fusions are not shown.
# UniProt Q9Y265: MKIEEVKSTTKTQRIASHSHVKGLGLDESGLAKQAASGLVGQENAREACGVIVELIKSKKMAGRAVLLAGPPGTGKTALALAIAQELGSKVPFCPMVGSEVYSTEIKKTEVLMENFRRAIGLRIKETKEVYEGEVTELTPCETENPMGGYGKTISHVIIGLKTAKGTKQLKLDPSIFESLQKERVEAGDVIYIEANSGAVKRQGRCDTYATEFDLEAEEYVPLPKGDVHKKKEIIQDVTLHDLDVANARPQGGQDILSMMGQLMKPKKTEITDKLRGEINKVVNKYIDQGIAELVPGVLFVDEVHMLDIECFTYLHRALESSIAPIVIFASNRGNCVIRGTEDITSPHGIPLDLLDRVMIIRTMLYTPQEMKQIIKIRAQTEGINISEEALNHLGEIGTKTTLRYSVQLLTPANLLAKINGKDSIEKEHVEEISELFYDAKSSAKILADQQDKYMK
# UniProt Q14008: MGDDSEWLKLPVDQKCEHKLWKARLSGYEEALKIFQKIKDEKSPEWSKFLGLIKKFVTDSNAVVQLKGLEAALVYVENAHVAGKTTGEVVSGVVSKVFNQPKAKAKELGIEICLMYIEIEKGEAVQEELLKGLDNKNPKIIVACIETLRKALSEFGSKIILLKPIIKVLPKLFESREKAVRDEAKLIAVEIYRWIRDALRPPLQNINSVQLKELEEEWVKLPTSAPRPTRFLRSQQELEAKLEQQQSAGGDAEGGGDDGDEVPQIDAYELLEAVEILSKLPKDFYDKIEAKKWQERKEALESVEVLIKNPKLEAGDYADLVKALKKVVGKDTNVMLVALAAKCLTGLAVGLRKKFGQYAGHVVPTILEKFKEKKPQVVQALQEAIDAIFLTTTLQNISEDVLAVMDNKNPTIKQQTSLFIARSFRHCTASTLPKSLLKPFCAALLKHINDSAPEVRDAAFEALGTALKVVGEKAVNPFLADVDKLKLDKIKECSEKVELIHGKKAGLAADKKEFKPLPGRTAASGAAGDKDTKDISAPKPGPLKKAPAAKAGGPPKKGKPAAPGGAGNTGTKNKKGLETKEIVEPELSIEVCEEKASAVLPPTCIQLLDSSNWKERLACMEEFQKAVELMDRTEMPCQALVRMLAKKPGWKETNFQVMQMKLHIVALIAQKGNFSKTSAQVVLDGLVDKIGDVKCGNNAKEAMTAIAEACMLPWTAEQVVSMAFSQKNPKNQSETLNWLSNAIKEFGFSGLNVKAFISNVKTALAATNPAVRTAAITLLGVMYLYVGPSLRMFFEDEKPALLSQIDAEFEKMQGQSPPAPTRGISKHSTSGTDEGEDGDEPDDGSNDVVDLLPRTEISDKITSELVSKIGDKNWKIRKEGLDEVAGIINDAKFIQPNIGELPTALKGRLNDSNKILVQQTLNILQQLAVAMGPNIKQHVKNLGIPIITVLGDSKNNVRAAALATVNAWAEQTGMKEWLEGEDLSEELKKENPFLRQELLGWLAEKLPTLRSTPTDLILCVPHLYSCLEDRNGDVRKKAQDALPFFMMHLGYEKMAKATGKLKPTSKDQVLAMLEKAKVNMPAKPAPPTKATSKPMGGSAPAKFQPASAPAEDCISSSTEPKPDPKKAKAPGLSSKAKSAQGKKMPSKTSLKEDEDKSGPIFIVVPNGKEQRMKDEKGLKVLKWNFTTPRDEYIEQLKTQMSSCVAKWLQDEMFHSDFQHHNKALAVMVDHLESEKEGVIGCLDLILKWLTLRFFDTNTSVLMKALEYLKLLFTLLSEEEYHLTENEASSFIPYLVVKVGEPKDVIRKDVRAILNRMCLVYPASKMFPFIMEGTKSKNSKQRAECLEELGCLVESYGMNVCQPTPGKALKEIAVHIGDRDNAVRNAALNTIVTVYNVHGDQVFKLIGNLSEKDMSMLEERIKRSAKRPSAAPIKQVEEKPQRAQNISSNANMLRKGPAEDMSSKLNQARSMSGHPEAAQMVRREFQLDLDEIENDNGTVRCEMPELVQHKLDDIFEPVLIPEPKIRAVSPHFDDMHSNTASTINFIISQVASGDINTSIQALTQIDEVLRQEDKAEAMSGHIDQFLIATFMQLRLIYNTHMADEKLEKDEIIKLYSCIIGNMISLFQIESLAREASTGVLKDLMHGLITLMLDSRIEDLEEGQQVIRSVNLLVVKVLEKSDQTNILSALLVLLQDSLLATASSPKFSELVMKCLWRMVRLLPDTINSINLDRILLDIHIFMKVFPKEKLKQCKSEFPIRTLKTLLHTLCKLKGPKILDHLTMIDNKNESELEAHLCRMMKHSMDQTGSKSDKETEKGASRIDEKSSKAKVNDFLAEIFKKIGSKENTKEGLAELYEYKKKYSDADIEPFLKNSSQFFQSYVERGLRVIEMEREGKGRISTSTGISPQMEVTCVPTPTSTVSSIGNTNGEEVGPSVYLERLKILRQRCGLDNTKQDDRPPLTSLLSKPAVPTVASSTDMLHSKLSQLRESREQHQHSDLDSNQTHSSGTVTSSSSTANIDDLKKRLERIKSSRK
# UniProt P35222: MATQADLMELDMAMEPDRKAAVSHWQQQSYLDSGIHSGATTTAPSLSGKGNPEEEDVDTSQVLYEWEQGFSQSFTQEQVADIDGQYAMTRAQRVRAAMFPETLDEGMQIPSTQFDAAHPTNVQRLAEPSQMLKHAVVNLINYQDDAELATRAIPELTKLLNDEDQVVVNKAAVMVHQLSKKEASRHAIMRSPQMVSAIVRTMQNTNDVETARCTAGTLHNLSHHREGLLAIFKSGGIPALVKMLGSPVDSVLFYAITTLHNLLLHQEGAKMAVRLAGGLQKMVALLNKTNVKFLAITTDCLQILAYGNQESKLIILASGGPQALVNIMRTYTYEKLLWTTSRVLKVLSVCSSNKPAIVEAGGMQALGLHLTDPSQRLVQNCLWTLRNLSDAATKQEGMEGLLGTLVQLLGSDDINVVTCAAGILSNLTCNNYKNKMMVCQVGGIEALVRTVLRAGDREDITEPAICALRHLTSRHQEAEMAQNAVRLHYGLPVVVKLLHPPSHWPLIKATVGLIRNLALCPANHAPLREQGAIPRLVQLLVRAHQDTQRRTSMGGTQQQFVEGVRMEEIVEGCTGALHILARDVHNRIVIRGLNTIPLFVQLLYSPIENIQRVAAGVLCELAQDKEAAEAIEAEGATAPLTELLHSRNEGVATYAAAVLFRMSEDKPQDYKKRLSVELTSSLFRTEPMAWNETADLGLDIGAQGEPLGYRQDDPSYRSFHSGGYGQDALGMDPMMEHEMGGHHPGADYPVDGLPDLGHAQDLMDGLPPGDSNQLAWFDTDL
# UniProt Q9BUF5: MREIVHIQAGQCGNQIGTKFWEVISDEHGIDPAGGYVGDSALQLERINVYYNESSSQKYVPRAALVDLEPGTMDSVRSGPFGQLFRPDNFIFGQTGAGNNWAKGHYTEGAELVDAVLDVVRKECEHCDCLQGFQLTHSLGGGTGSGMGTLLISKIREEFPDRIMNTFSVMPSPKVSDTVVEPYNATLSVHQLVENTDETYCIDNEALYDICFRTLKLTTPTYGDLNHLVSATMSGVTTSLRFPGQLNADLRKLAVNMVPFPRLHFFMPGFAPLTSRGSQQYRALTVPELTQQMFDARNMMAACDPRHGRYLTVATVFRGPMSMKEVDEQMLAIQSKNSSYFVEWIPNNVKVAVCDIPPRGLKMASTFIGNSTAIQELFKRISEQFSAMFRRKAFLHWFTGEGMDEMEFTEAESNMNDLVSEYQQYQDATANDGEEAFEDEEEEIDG
# UniProt P12270: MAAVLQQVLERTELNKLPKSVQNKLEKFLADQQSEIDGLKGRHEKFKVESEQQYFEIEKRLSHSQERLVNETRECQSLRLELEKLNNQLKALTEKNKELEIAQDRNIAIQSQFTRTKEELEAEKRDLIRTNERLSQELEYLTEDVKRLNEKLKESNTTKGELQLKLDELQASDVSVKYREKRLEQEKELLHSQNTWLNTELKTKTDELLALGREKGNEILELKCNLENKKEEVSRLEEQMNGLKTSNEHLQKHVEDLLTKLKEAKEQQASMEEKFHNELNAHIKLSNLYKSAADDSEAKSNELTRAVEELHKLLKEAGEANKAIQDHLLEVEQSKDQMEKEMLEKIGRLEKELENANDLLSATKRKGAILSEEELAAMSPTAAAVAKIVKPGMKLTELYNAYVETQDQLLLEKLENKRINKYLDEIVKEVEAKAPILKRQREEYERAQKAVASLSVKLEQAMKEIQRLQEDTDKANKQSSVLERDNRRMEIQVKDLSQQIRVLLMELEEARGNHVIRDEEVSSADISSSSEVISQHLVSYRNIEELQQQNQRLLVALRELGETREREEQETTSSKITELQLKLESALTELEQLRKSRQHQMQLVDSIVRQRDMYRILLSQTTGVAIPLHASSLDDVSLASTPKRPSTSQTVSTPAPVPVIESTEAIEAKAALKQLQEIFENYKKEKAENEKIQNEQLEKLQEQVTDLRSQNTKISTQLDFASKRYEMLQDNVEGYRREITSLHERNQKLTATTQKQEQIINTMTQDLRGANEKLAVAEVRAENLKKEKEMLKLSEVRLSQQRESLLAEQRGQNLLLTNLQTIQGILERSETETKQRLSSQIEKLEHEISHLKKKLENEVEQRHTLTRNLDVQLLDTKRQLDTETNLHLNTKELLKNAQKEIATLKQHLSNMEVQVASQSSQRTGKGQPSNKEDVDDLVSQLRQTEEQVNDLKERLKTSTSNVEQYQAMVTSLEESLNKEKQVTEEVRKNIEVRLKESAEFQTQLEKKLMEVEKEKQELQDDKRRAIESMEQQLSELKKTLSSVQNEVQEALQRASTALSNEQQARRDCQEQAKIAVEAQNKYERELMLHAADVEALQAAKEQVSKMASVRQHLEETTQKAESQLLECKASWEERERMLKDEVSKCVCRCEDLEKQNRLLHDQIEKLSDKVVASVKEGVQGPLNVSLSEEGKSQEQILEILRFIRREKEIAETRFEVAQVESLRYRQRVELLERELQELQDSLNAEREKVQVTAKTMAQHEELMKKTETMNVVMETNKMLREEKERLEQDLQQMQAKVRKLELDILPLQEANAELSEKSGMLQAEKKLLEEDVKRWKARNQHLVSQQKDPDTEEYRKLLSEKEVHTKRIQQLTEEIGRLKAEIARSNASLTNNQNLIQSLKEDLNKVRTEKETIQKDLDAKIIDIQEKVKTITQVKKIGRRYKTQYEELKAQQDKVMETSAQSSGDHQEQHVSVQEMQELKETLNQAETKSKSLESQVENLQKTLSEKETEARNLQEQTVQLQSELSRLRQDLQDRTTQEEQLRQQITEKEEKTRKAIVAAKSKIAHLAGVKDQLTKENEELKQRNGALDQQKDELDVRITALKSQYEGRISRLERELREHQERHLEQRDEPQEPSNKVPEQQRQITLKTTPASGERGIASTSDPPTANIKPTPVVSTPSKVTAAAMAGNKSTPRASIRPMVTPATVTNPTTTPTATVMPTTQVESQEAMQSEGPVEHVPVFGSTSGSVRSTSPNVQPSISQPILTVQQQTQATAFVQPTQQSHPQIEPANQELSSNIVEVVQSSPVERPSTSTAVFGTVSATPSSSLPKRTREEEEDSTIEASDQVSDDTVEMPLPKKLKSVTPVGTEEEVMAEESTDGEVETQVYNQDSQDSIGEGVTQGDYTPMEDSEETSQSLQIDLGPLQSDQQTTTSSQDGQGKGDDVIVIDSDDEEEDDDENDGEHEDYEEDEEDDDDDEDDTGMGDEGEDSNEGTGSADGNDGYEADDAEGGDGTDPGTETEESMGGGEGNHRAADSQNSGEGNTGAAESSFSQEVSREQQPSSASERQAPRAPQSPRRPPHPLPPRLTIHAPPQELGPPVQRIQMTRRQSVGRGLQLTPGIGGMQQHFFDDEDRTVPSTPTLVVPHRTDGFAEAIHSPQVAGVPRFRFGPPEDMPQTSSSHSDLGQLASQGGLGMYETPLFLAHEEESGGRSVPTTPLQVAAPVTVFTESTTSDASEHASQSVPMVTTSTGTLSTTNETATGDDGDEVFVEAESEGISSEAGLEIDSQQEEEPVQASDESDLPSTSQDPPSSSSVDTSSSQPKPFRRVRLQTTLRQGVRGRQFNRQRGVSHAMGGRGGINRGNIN
# These are yes or no findings as the source states them, for the method shown. In cells and extracts the contact can be indirect. These calls come from enrichment with a bait or labelling near it, and not all partners need be listed. Sequences can lack the tags named with a protein.
# T1: BioLSF (biotinylated domain fused to LSF) (UniProt Q12800)
# T1 sequence (chain, biotin on the Bio domain (biotinylated by endogenous enzymes)): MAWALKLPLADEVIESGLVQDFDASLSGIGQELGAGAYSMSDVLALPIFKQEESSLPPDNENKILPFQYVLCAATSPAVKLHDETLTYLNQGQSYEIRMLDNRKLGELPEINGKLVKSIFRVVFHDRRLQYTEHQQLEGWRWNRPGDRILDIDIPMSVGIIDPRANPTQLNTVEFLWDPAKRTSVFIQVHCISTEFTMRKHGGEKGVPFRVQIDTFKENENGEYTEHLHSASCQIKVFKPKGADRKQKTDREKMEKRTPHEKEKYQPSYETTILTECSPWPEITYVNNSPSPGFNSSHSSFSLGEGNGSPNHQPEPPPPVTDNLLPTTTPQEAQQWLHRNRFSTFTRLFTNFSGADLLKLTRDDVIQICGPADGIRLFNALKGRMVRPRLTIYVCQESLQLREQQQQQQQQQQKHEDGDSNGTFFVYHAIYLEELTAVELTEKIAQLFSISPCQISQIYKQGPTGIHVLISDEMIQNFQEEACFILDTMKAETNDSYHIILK
# Target: T1, BioLSF (biotinylated domain fused to LSF)
# Assay: affinity purification with mass spectrometry; mitotic DLD-1 derived cells induced with doxycycline to express BioLSF, 1 h with vehicle or 4 uM FQI1, cross-linked with 1% formaldehyde for 5 min; lysate bound to streptavidin beads, washed with 2% SDS, high salt buffer, LiCl buffer and PBS; controls: parental DLD-1 and uninduced cells; may also find proteins in complexes with direct BioLSF partners
row,binding,Molecule
1,binds,RuvB-like AAA ATPase 1 (from UniProt Q9Y265 1-456) (enzyme)
2,binds,Cytoskeleton-associated protein 5 (from UniProt Q14008 1-2032)
3,binds,Cytoplasmic dynein 1 heavy chain 1 (from UniProt Q14204 1-4646)
4,binds,Beta-catenin (from UniProt P35222 1-781)
5,binds,Tubulin beta-6 (from UniProt Q9BUF5 1-446)
6,binds,Nucleoprotein TPR (from UniProt P12270 1-2363)
7,binds,"Kinesin family member 2C (protein, UniProt Q99661 1-725) MAMDSSLQARLFPGLAIKIQRSNGLIHSANVRTVNLEKSCVSVEWAEGGATKGKEIDFDDVAAINPELLQLLPLHPKDNLPLQENVTIQKQKRRSVNSKIPAPKESLRSRSTRMSTVSELRITAQENDMEVELPAAANSRKQFSVPPAPTRPSCPAVAEIPLRMVSEEMEEQVHSIRGSSSANPVNSVRRKSCLVKEVEKMKNKREEKKAQNSEMRMKRAQEYDSSFPNWEFARMIKEFRATLECHPLTMTDPIEEHRICVCVRKRPLNKQELAKKEIDVISIPSKCLLLVHEPKLKVDLTKYLENQAFCFDFAFDETASNEVVYRFTARPLVQTIFEGGKATCFAYGQTGSGKTHTMGGDLSGKAQNASKGIYAMASRDVFLLKNQPCYRKLGLEVYVTFFEIYNGKLFDLLNKKAKLRVLEDGKQQVQVVGLQEHLVNSADDVIKMIDMGSACRTSGQTFANSNSSRSHACFQIILRAKGRMHGKFSLVDLAGNERGADTSSADRQTRMEGAEINKSLLALKECIRALGQNKAHTPFRESKLTQVLRDSFIGENSRTCMIATISPGISSCEYTLNTLRYADRVKELSPHSGPSGEQLIQMETEEMEACSNGALIPGNLSKEEEELSSQMSSFNEAMTQIRELEEKAMEELKEIIQQGPDWLELSEMTEQPDYDLETFVNKAESALAQQAKHFSALRDVIKALRLAMQLEEQASRQISSKKRPQ"
8,binds,"Kinesin family member 23 (protein, UniProt Q02241 1-960) MKSARAKTPRKPTVKKGSQTNLKDPVGVYCRVRPLGFPDQECCIEVINNTTVQLHTPEGYRLNRNGDYKETQYSFKQVFGTHTTQKELFDVVANPLVNDLIHGKNGLLFTYGVTGSGKTHTMTGSPGEGGLLPRCLDMIFNSIGSFQAKRYVFKSNDRNSMDIQCEVDALLERQKREAMPNPKTSSSKRQVDPEFADMITVQEFCKAEEVDEDSVYGVFVSYIEIYNNYIYDLLEEVPFDPIKPKPPQSKLLREDKNHNMYVAGCTEVEVKSTEEAFEVFWRGQKKRRIANTHLNRESSRSHSVFNIKLVQAPLDADGDNVLQEKEQITISQLSLVDLAGSERTNRTRAEGNRLREAGNINQSLMTLRTCMDVLRENQMYGTNKMVPYRDSKLTHLFKNYFDGEGKVRMIVCVNPKAEDYEENLQVMRFAEVTQEVEVARPVDKAICGLTPGRRYRNQPRGPVGNEPLVTDVVLQSFPPLPSCEILDINDEQTLPRLIEALEKRHNLRQMMIDEFNKQSNAFKALLQEFDNAVLSKENHMQGKLNEKEKMISGQKLEIERLEKKNKTLEYKIEILEKTTTIYEEDKRNLQQELETQNQKLQRQFSDKRRLEARLQGMVTETTMKWEKECERRVAAKQLEMQNKLWVKDEKLKQLKAIVTEPKTEKPERPSRERDREKVTQRSVSPSPVPLSSNYIAQISNGQQLMSQPQLHRRSNSCSSISVASCISEWEQKIPTYNTPLKVTSIARRRQQEPGQSKTCIVSDRRRGMYWTEGREVVPTFRNEIEIEEDHCGRLLFQPDQNAPPIRLRHRRSRSAGDRWVDHKPASNMQTETVMQPHVPHAITVSVANEKALAKCEKYMLTHQELASDGEIETKLIKGDIYKTRGGGQSVQFTDIETLKQESPNGSRKRRSSTVAPAQPDGAESEWTDVETRCSVAVEMRAGSQLGPGYQHHAQPKRKKP"
